Results deposited as PubChem BioAssay AID1224831 (NIAID, 2016).
This is one part, drawn at random, of about 3,500 reagents. Over the whole deposit, 731 (21%) were called active. 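Active means either lowered or raised reporter signal; the gene-median score did not drive the per-siRNA calls.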 Unmarked entries are inactive.

Aim: 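Confirming genome-wide hits on LPS-triggered TNF-alpha induction with independent siRNA sequences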 (follow-up of hits)
System: human THP-1 B5 monocytic leukaemia cells carrying a TNF promoter luciferase reporter, made macrophage-like with PMA
Knock-down reagent: single siRNA against human genes, 50 nM
Timing: about 68 h of knock-down, then 4 h LPS
Challenge: LPS (Salmonella minnesota, TLR-grade) at 10 ng/ml for 4 h; PMA 5 ng/ml present during knock-down
Detection: 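TNF promoter reporter read as dual luciferase ratio after 4 h LPS, normalised per plate to its median, given as replicate mean robust z-score per siRNA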
Direction: TNF reporter z-score: higher = stronger LPS-induced TNF reporter signal; z-score, median over gene's siRNAs: higher = stronger TNF reporter signal across the gene's siRNAs
Rule for the call: 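Two-sided call: reduced or raised TNF reporter signal counts as active once mean z reaches about -1 or below, or about 1.5 or above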
Calls: active = changed TNF reporter (either direction); inactive = little change

| gene | PubChem SID | TNF reporter z-score, replicate mean | z-score, median over gene's siRNAs |
| --- | --- | --- | --- |
| DAPL1 | SID315487293 | -1 (active) | -0.17 |
| DAPL1 | SID315487294 | -0.25 | -0.17 |
| DAPL1 | SID315487295 | -0.21 | -0.17 |
| DAPL1 | SID315487296 | -0.13 | -0.17 |
| DAPL1 | SID315487297 | 0.68 | -0.17 |
| DAPL1 | SID315487298 | 0.07 | -0.17 |
| GNAI3 | SID315482382 | -0.34 | -0.32 |
| GNAI3 | SID315482383 | 0.16 | -0.32 |
| GNAI3 | SID315482384 | -0.06 | -0.32 |
| GNAI3 | SID315482385 | -0.3 | -0.32 |
| GNAI3 | SID315482386 | -0.46 | -0.32 |
| GNAI3 | SID315482387 | -0.61 | -0.32 |
| ARCN1 | SID315482064 | -1.05 (active) | -1.03 |
| ARCN1 | SID315482065 | -1.8 (active) | -1.03 |
| ARCN1 | SID315482066 | -1.02 (active) | -1.03 |
| ARCN1 | SID315482067 | 0.29 | -1.03 |
| ARCN1 | SID315482068 | -0.42 | -1.03 |
| ARCN1 | SID315482069 | -1.25 (active) | -1.03 |
| DUSP6 | SID315482280 | -0.89 | -1.08 |
| DUSP6 | SID315482281 | -1.46 (active) | -1.08 |
| DUSP6 | SID315482282 | -1.27 (active) | -1.08 |
| DUSP6 | SID315482283 | -0.41 | -1.08 |
| DUSP6 | SID315482284 | -1.28 (active) | -1.08 |
| DUSP6 | SID315482285 | -0.44 | -1.08 |
| GUCY2D | SID315482406 | 0.59 | 0.575 |
| GUCY2D | SID315482407 | 2.33 (active) | 0.575 |
| GUCY2D | SID315482408 | -0.08 | 0.575 |
| GUCY2D | SID315482409 | 0.56 | 0.575 |
| GUCY2D | SID315482410 | 6.62 (active) | 0.575 |
| GUCY2D | SID315482411 | -0.09 | 0.575 |
| SDHD | SID315482850 | 1.55 (active) | 1.43 |
| SDHD | SID315482851 | 1.7 (active) | 1.43 |
| SDHD | SID315482852 | 1.31 | 1.43 |
| SDHD | SID315482853 | 2.12 (active) | 1.43 |
| SDHD | SID315482854 | -2.16 (active) | 1.43 |
| SDHD | SID315482855 | -0.95 | 1.43 |
